No constants are given. Whether binding was seen depends on the method and setting. In cells and extracts the contact can be indirect.

By UniProt entry, the sequences of proteins in these tests, tags left out.
UniProt P27986: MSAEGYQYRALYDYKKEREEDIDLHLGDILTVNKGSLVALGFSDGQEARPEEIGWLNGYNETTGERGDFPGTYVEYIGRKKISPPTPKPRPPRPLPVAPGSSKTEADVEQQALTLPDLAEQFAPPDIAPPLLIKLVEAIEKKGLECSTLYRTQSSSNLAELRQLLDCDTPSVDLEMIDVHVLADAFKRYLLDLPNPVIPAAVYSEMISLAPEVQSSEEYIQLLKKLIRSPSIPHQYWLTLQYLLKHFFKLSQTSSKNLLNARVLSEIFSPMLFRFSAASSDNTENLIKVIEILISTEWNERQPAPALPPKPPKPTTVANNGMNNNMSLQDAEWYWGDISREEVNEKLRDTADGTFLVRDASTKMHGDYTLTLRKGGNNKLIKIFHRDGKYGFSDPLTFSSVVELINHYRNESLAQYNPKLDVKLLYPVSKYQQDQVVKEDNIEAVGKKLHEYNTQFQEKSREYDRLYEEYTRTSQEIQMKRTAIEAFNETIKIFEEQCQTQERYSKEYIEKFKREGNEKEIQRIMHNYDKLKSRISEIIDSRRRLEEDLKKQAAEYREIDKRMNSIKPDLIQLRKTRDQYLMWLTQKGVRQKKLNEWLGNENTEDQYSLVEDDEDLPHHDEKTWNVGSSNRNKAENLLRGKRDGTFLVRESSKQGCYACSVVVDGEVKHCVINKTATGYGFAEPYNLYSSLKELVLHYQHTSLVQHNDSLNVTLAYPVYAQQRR

To fix the notation:
T1: TMCO3 (IP experiments whose cells are not stated) (UniProt Q6UWJ1)
T1 sequence: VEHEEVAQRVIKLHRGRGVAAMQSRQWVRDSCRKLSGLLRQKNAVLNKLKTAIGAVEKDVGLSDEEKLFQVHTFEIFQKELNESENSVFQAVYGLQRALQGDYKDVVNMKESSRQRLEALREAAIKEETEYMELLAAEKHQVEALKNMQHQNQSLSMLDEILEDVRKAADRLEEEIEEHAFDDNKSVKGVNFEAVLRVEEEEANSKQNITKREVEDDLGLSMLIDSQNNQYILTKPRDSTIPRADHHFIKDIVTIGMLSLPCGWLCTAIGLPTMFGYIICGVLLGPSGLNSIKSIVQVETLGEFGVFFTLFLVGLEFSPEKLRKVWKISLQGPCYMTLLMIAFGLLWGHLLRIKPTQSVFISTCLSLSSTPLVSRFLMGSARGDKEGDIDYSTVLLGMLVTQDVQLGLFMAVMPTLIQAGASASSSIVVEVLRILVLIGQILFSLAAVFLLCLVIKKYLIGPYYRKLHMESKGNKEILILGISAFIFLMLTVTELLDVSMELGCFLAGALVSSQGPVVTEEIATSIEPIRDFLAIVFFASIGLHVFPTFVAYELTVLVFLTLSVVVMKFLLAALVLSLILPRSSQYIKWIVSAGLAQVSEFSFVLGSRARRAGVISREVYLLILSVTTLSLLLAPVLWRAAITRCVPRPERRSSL

B1: PDK1 (3‐Phosphoinositide‐Dependent Protein Kinase‐1) (protein, UniProt O15530 1-556)
chain: MARTTSQLYDAVPIQSSVVLCSCPSPSMVRTQTESSTPPGIPGGSRQGPAMDGTAAEPRPGAGSLQHAQPPPQPRKKRPEDFKFGKILGEGSFSTVVLARELATSREYAIKILEKRHIIKENKVPYVTRERDVMSRLDHPFFVKLYFTFQDDEKLYFGLSYAKNGELLKYIRKIGSFDETCTRFYTAEIVSALEYLHGKGIIHRDLKPENILLNEDMHIQITDFGTAKVLSPESKQARANSFVGTAQYVSPELLTEKSACKSSDLWALGCIIYQLVAGLPPFRAGNEYLIFQKIIKLEYDFPEKFFPKARDLVEKLLVLDATKRLGCEEMEGYGPLKAHPFFESVTWENLHQQTPPKLTAYLPAMSEDDEDCYGNYDNLLSQFGCMQVSSSSSSHSLSASDTGLPQRSGSNIEQYIHDLDSNSFELDLQFSEDEKRLLLEKQAGGNPWHQFVENNLILKMGPVDKRKGLFARRRQLLLTEGPHLYYVDPVNKVLKGEIPWSQELRPEAKNFKTFFVHTPNRTYYLMDPSGNAHKWCRKIQEVWRQRYQSHPDAAVQ
B2: PHLPP2 (protein, UniProt Q6ZVD8 1-1323)
chain: MKRNGSRNCLNRRSRFGSRERDWLREDVKRGCVYLYGADTTTATTTTTTSSSSSSSSSSSDLHLVLCTVETPASEICAGEGRESLYLQLHGDLVRRLEPTERPLQIVYDYLSRLGFDDPVRIQEEATNPDLGCMIRFYGEKPCHMDRLDRILLSGIYNVRKGKTQLHKWAERLVVLCGTCLIVSSVKDCQTGKMHILPLVGGKIEEVKRRQYSLAFSSAGAQAQTYHVSFETLAEYQRWQRQASKVVSQRISTVDLSCYSLEEVPEHLFYSQDITYLNLRHNFMQLERPGGLDTLYKFSQLKGLNLSHNKLGLFPILLCEISTLTELNLSCNGFHDLPSQIGNLLNLQTLCLDGNFLTTLPEELGNLQQLSSLGISFNNFSQIPEVYEKLTMLDRVVMAGNCLEVLNLGVLNRMNHIKHVDLRMNHLKTMVIENLEGNKHITHVDLRDNRLTDLDLSSLCSLEQLHCGRNQLRELTLSGFSLRTLYASSNRLTAVNVYPVPSLLTFLDLSRNLLECVPDWACEAKKIEVLDVSYNLLTEVPVRILSSLSLRKLMLGHNHVQNLPTLVEHIPLEVLDLQHNALTRLPDTLFSKALNLRYLNASANSLESLPSACTGEESLSMLQLLYLTNNLLTDQCIPVLVGHLHLRILHLANNQLQTFPASKLNKLEQLEELNLSGNKLKTIPTTIANCKRLHTLVAHSNNISIFPEILQLPQIQFVDLSCNDLTEILIPEALPATLQDLDLTGNTNLVLEHKTLDIFSHITTLKIDQKPLPTTDSTVTSTFWSHGLAEMAGQRNKLCVSALAMDSFAEGVGAVYGMFDGDRNEELPRLLQCTMADVLLEEVQQSTNDTVFMANTFLVSHRKLGMAGQKLGSSALLCYIRPDTADPASSFSLTVANVGTCQAVLCRGGKPVPLSKVFSLEQDPEEAQRVKDQKAIITEDNKVNGVTCCTRMLGCTYLYPWILPKPHISSTPLTIQDELLILGNKALWEHLSYTEAVNAVRHVQDPLAAAKKLCTLAQSYGCQDNVGAMVVYLNIGEEGCTCEMNGLTLPGPVGFASTTTIKDAPKPATPSSSSGIASEFSSEMSTSEVSSEVGSTASDEHNAGGLDTALLPRPERRCSLHPTPTSGLFQRQPSSATFSSNQSDNGLDSDDDQPVEGVITNGSKVEVEVDIHCCRGRDLENSPPLIESSPTLCSEEHARGSCFGIRRQNSVNSGMLLPMSKDRMELQKSPSTSCLYGKKLSNGSIVPLEDSLNLIEVATEVPKRKTGYFAAPTQMEPEDQFVVPHDLEEEVKEQMKQHQDSRLEPEPHEEDRTEPPEEFDTAL

The target of this assay is T1, TMCO3 (IP experiments whose cells are not stated). Description: co-IP; CO-IP of TMCO3 with classic PI3K subunits and other molecules that affect AKT activation; cells not given.
Regarding p85α (from UniProt P27986 1-724), the binding entry is listed as “no binding”.

As to B1, the binding entry was “no binding”. The entry for B2 is “no binding”.

For the origin of these results see PMC12279241.
